Results reported in US20080207671A1, “Diagnosis and treatment of diseases arising from defects in the tuberous sclerosis pathway” (The Regents of the University of Michigan, priority 2006, published 2008).
Entries after “also recorded” stand apart in the source; their conditions may differ. Where two headings read alike, the source gives them in different places. At least one compound was matched to its structure with a doubt left.

Columns and labels:
S6K-dC104 [1] = assay: Phosphorylation and kinase activity of rapamycin-resistant S6K mutants (S6K-dC104, S6K-dNC); type: cell-based
Procedure: (§1) HEK293 cells were seeded and maintained in Dulbecco's modified Eagle's medium (DMEM) containing 10% fetal bovine serum (FBS). Transfection was performed in serum-free conditions using Lipofectamine reagent (Invitrogen, Carlsbad, Calif.) in accordance with the manufacturer's instructions. In brief, 4 h after transfection, the cells were recovered in DMEM containing 10% FBS for 16 h and then starved for 16-24 h. Cells were then lysed in lysis buffer (10 mM Tris-HCl at pH 7.5, 100 mM sodium chloride, 1% NP-40, 1% Triton X-100, 50 mM sodium fluoride, 2 mM EDTA, 1 mM phenyl methylsulphonyl fluoride, 10 μg ml^−1 leupeptin and 10 μg ml^−1 aprotinine) and immunoprecipitated with the indicated antibodies and protein G-Sepharose beads. Immunocomplexes were analyzed by SDS-polyacrylamide gel electrophoresis (PAGE).
For the S6K assays, HEK293 cells grown in six-well plates were transfected with 10-20 ng HA-S6K constructs, with or without various plasmids, as indicated in the figures. HA-S6K was immunoprecipitated from serum-starved cells with an anti-HA antibody and analyzed by in vitro kinase assay using purified GST-S6 as a substrate (Pearson et al., EMBO J. 14:5279-5287 (1995)).

S6K-dC104 [2] = details: cited from earlier work; for phosphorylation of Thr 389 in S6K-dC104: Dennis et al.
TSC2 = assay: TSC2/TSC1 phosphorylation in transfected HEK293 cells (mobility shift, 32P labelling, two-dimensional phosphopeptide mapping); type: cell-based, human; details: for phosphorylation of TSC2 phosphopeptides (two-dimensional mapping): HA-TSC2, LY294002 50 μM, rapamycin 20 nM
Procedure: as §1
HEK293 cells were cotransfected with HA-tagged TSC2, Myc-tagged TSC1 and the indicated plasmids. Cells were phosphate- and serum-starved for 4 h before incubation with 0.25 mCi ml^−1 32P-orthophosphate (ICN) for 4 h.
Cells were washed once with ice-cold PBS and lysed. HA-tagged TSC2 was immunoprecipitated, resolved by SDS-PAGE and transferred to a PVDF membrane. Phosphorylated TSC2 was visualized by autoradiography and phosphopeptide mapping was then performed. In brief, the phosphorylated TSC2 bands were excised, fixed in methanol and incubated in 500 μl of 0.5% polyvinylpyrrolidone-40 dissolved in 100 mM acetic acid for 30 min at 37° C. The sample were then digested with 20 μg of TPCK-treated trypsin (Sigma) at 37° C. in 75 mM ammonium bicarbonate buffer at pH 8.0 containing 5% acetonitrile. After digestion, samples were dried under vacuum and suspended in 10 μl of water. Samples were spotted onto a cellulose plate and first dimensional electrophoresis was performed using 1% ammonium bicarbonate buffer at pH 8.9. The plates were separated by chromatography in the second dimension in chromatography buffer (n-butanol:pyridine:acetic acid:water; 20:24:6:30). The plates were dried and phosphopeptides were visualized by autoradiography.

[3] = tested on: LEF (TSC2−/− epithelial) cells; assay: Cell death / apoptosis of LEF cells (vector, TSC2, TSC2-3A); type: cell-based; details: glucose free medium, 20 nM
Procedure: FIGS. 16a-16f show TSC2 plays roles in protecting cells from glucose depletion-induced apoptosis. […] LEF cells stably expressing vector, TSC2, or TSC2-3A were cultured in 25 mM glucose (G+) or glucose free medium (G−) with or without 20 nM rapamycin. Pictures were taken at 72 hours in culture. Note that the TSC2 wild type expressing cells are morphologically smaller. […] LEF cells stably expressing vector, TSC2 or TSC2-3A were cultured in glucose free medium with or without 20 nM rapamycin for 48 hours. Western blots with anti-cleaved-caspase-3 and actin are shown. […] EEF cells were cultured in glucose free medium with or without 20 nM rapamycin for 96 hours. […] The EEF4 and EEF8 cells were cultured in glucose free medium with or without 20 nM rapamycin for 72 hours. Western blots with cleaved-caspase-3 and actin are shown. […] The MEFs were cultured in glucose free medium for 48 hours. […] MEFs were cultured in glucose free medium with or without 20 nM rapamycin for 16 hours. Western blots with cleaved-caspase-3 and actin are shown.

db/db mice [4] = assay: Diabetic nephropathy in db/db mice: glomerular morphometry, gene expression, urinary albumin; type: in vivo; details: for pathological changes and renal dysfunctions associated with diabetic nephropathy: diabetic mice, systemic administration
Procedure: (§2) Mice were randomly divided into four groups as follows: nondiabetic db/+; nondiabetic db/+ treated with Rapamycin; diabetic db/db: and diabetic db/db treated with Rapamycin (2.0 mg/kg body weight, 3 days/week). Rapamycin was injected intraperitoneally (i.p.) from the age of 8 weeks to 25 weeks or 16 weeks to 25 weeks. Blood glucose levels and body weight were determined weekly in all animals. Mice were housed in a 12 hr light/dark cycle and temperature-controlled environment. Animal care and all experiments were conducted in accordance with the institutional guidelines of the Kyushu University Graduate School of Medicine.
Seventeen weeks after treatment with rapamycin (25 week of age), mice were deeply anesthetized, after perfusion with ice-cold PBS, the kidneys were perfused with 4% paraformaldehyde. Both kidneys were embedded in paraffin and sections of 6 μm thickness were cut (perpendicular to the long axis of the kidney) for morphometric and immunohistochemical analysis. For morphometric analysis of the glomeruli, sections were stained with periodic acid-Sciff (PAS). To quantify mesangial expansion, sections were coded and read. In each animal of the four experimental groups, 20 glomeruli cut at their vascular pole were used for a morphometric analysis. The extent of increase in mesangial matrix (defined as mesangial area) was determined by the presence of PAS-positive and nuclei-free area in the mesangium; the glomerular surface area has been measured using standard measurements of glomerular tuft areas using a the computer program of Axiovision Auto Mesure.
(§3) At age 25 weeks, kidney was isolated from db/db and db/+ mice (n=10 for each group), and total RNA was purified. The expression of fibronectin and α3-type IV collagen mRNA by real-time reverse transcriptase-polymerase chain reaction (RT-PCR), which was performed in an ABI 7700 sequence detector (Applied Biosystems), was quantified. Primers were described previously (see, e.g., Fujimoto M, et al., Biochem Biophys Res Commun 305:1002-7, 2003; herein incorporated by reference in its entirety). For quantitative RT-PCR of UCP-1, BAT (brown adipose tissue) was isolated from 2 weeks rapamycin treated or untreated mice, primers used were described previously (see, e.g., Um S H, et al., Nature 431, 200-205, 2004; herein incorporated by reference in its entirety). Data were normalized to GAPDH and analyzed by the comparative threshold cycle method. Results are presented as fold expression relative to db/+ mice.
(§4) Urine was obtained from db/db mice at the end of the study. Mice were placed in metabolic cages for 1 week and a 24 h urine sample for each mouse was collected on 5 consecutive days. Urine was centrifuged to remove debris and stored at −80° C. Albumin in urine was measured by a competitive ELISA (Albuwell M, Exocell Inc., Philadelphia, Pa.) according to the manufacturer's instruction. Blood was collected from Twenty-four-week-old mice. Animals were ad libitum and anesthetized. Blood was collected and was allowed to clot at room temperature, centrifuged at 13,000 g for 2 min, and the serum was stored at −80° C. The serum leptin and insulin concentration were determined by using ELISA kit (Morinaga, Japan). Oxygen consumption was recorded using mice at 25 weeks of age as previously described (see, e.g., Picard, F., et al., Cell 111: 931-941, 2002; herein incorporated by reference in its entirety).
(§5) Data were expressed as the means±SEM. Statistical significance was tested with an unpaired two-tailed Student's t test and analysis of variance (ANOVA).

db/db mice [5] = type: in vivo
Procedure: m+/+ Lepr db (db/+) mice were obtained from The Charles River Japan and mated, +Lepr db/+ Lepr db mice (db/db) mice were generated.
as §2, §3, §4, §5

S6K and 4EBP1 = details: cited from earlier work
[6] = tested on: mesangial and embryonic kidney cells; assay: Insulin-induced Akt phosphorylation in mesangial cells and HEK293 cells in high glucose; type: cell-based; details: 20 nM rapamycin, insulin 400 nM
HEK293 cells = assay: Cell size of HEK293 cells by FACS; type: cell-based, human; details: 12.5 mM 2-DG or 20 nM rapamycin, 72 hours
Procedure: FIGS. 17a-17b show TSC2 plays roles for cell size control in response to energy starvation. […] HEK293 cells were cultured in the presence of 12.5 mM 2DG, TSC2 RNAi, or 20 nM rapamycin for 72 hours. Cells were harvested and FACS analysis was performed to determine cell size. The X-axis indicates relative cell size. Cell size distribution curve of the control, as indicated by the gray curve, is included in each panel for comparison purposes. […] Experiments are similar to those in panel A.

[7] = tested on: acetyl CoA carboxylase (ACC) and eukaryote elongation factor 2 (eEF2); assay: Phosphorylation of the AMPK substrates ACC and eEF2; type: cell-based; details: 2-DG-induced phosphorylation
db/+ mice = assay: Rapamycin treatment of nondiabetic db/+ mice; type: in vivo

O=c1cc(N2CCOCC2)oc2c(-c3ccccc3)cccc12 [LY294002]
phosphorylation of Thr 389 in S6K-dC104 (S6K-dC104 [1]): inhibited
phosphorylation of Thr 389 in S6K-dC104 (S6K-dC104 [2]): inhibited
phosphorylation of TSC2 phosphopeptides (two-dimensional mapping) (TSC2): decreased phosphorylation of the same subset of phosphopeptides
mobility of TSC2 (TSC2; PI(3)K inhibitor treatment, HEK293): increased the mobility of TSC2

CO[C@H]1C[C@@H]2CC[C@@H](C)[C@@](O)(O2)C(=O)C(=O)N2CCCC[C@H]2C(=O)O[C@H]([C@H](C)C[C@@H]2CC[C@@H](O)[C@H](OC)C2)CC(=O)[C@H](C)/C=C(\C)[C@@H](O)[C@@H](OC)C(=O)[C@H](C)C[C@H](C)/C=C/C=C/C=C/1C [rapamycin]
phosphorylation of Thr 389 in S6K-dC104 (S6K-dC104 [1]): not by rapamycin
caspase 3 activation ([3]; 48 hours): suppressed caspase 3 activation; also recorded: inhibits glucose depletion-induced caspase-3 activation
glucose deprivation-induced cell death / apoptosis ([3]; 72 hours): significantly protects LEF cells from glucose deprivation-induced apoptosis; also recorded: protects LEF cells from glucose depletion-induced cell death
phosphorylation of Thr 389 in S6K-dC104 (S6K-dC104 [2]): not by rapamycin
kinase activity of S6K-dNC (S6K-dC104 [2]; Schalm et al.): completely resistant
kinase activity of S6K-dC104 (S6K-dC104 [2]; Weng et al., Schalm et al.): inhibited
phosphorylation of TSC2 phosphopeptides (two-dimensional mapping) (TSC2): had no effect on the phosphorylation of TSC2
total serum protein level and serum albumin level (db/db mice [4]; ad libitum fed, 24 weeks): neither total serum protein level nor serum albumin level was affected
extent of mesangial expansion (morphometrical analysis) (db/db mice [4]; db/db): completely reduced the extent of mesangial expansion in diabetic db/db mice to the levels of that in db/+ mice
net kidney weight (db/db mice [4]; db/db): inhibited the net kidney weight increase
total glomerular area (db/db mice [4]; db/db): reduced total glomerular area
PAS-positive mesangial area (db/db mice [4]; db/db, 16 weeks treatment): reduced the PAS-positive mesangial area; also recorded: Amelioration of accelerated mesangial expansion
α3-type IV collagen and fibronectin gene expression in renal cortex (real time RT-PCR) (db/db mice [4]; db/db, 25 weeks): these effects were inhibited
urinary albumin excretion rates (db/db mice [4]; db/db, treated from 8 weeks, age 25 weeks): significantly abrogated the increased urinary albumin excretion rates
albumin excretion rate, intervention in developed nephropathy (db/db mice [4]; db/db, treatment from 16 weeks of age for 8 weeks): significantly decreased albumin excretion rate
pathological changes and renal dysfunctions associated with diabetic nephropathy (db/db mice [4]): markedly ameliorated
pathological changes and renal dysfunctions associated with diabetic nephropathy (db/db mice [4]; listed as Rapamycin): ameliorates diabetic changes of kidney
circulating free fatty acid and triglyceride (db/db mice [5]; db/db): the same between treated and untreated db/db mice
food consumption adjusted by body weight (db/db mice [5]; db/db): higher than that of the untreated db/db mice
total food intake (db/db mice [5]; db/db): lower
weight of other organs (liver, kidney) (db/db mice [5]; db/db): but not other organs such as liver or kidney
UCP-1 mRNA levels in brown adipose tissue (BAT) (db/db mice [5]; db/db, 2 weeks treatment): increased
metabolic rate (indirect calorimetry) (db/db mice [5]; db/db, 16 weeks treatment): greatly enhanced
plasma leptin (db/db mice [5]; db/db, ad libitum fed, 24 weeks): significantly decreased
body weight (db/db mice [5]; db/db, 2.0 mg/kg i.p., 3 days/week, age 8-25 weeks): significantly reduced the body weight
body weight and fat deposits, pair feeding study (db/db mice [5]; untreated versus rapamycin-treated db/db): significantly higher than the rapamycin treated mice
nutrient-induced phosphorylation of S6K and 4E-BP1 (S6K and 4EBP1): blocked
Akt phosphorylation in response to insulin [6]: sensitizes Akt phosphorylation in response to insulin
cell size (HEK293 cells): decreased cell size
effect on phosphorylation of ACC and eEF2 [7]: Neither TSC2 RNAi nor rapamycin affected the phosphorylation; also recorded: has little effect
blood glucose levels (db/+ mice): did not affect blood glucose levels in either genotype
mesangial area (db/+ mice): not changed
plasma insulin levels (db/+ mice): had no effect on the plasma insulin levels
urinary albumin excretion (db/+ mice): did not affect urinary albumin excretion
body weight (db/+ mice; 2.0 mg/kg i.p., 3 days/week): but not in the db/+ mice

COC[C@H]1OC(=O)c2coc3c2[C@@]1(C)C1=C(C3=O)[C@@H]2CCC(=O)[C@@]2(C)C[C@H]1OC(C)=O [wortmannin]
phosphorylation of Thr 389 in S6K-dC104 (S6K-dC104 [1]): inhibited
